The values that follow come from PMC8336351.

Chains of the proteins cited; added tags and fusions are not shown.
UniProt Q8R4B8: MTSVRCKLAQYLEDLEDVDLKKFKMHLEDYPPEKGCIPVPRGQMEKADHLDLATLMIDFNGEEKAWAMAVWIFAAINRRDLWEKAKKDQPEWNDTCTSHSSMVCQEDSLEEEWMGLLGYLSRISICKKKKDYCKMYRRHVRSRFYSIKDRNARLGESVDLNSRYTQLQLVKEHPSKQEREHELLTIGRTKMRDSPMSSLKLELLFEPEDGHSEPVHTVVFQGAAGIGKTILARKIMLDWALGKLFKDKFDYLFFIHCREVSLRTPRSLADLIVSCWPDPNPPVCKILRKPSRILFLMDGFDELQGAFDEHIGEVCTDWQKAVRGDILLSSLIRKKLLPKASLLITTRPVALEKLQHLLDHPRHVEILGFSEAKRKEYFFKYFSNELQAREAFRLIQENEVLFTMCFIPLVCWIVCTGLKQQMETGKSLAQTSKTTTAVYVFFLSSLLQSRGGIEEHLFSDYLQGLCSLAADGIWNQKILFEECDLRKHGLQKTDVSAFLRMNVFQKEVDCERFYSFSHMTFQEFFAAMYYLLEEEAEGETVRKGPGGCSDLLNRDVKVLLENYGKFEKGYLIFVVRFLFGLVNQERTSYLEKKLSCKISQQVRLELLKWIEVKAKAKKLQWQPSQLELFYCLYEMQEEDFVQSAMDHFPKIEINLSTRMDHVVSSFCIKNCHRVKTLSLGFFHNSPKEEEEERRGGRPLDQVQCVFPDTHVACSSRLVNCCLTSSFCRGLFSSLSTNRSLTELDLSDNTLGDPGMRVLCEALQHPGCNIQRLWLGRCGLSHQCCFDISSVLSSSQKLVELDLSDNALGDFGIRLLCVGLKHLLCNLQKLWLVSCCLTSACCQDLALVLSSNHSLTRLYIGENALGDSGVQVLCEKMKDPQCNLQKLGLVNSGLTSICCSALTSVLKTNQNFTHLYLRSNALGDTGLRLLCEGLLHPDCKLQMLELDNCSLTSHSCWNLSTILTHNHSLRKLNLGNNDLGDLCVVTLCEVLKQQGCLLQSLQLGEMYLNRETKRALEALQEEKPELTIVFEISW

This experiment has as its target T1, thioredoxin-interacting protein (mouse (endogenous in C57BL/6 J mouse liver)) (UniProt Q8BG60).
T1 sequence: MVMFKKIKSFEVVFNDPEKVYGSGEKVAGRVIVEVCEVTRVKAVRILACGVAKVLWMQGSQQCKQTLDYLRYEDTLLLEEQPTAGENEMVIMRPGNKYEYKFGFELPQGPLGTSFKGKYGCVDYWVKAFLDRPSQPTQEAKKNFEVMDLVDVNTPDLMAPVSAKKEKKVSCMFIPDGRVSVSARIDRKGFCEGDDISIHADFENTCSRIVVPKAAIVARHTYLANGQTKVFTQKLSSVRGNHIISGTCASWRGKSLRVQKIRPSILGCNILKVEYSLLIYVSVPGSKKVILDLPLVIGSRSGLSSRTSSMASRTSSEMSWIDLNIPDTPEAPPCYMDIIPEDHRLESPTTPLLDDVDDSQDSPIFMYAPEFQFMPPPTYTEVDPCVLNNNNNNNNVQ
Put plainly: co-IP; liver tissue lysates of C57BL/6 J mice (normal diet, high fat & sucrose diet model, and groups treated with BER + CUR, LBC, LSDBC or DEAE-DEX@LSDBC); supernatant with antibody (anti-TXNIP or anti-p300, 1 μg/100 μL) at 4 °C overnight, protein A/G-agarose beads 4 h at 4 °C, washed 4 times with lysis buffer; western blot. On the technique in general: Immunoblotting shows a protein as a band on a membrane.

These are yes or no findings as the source states them, for the method shown. In cells and extracts the contact can be indirect. Some results given as binding are weak or reduced against the parent protein; the word gives no strength.

“nucleotide-binding oligomerization domain, leucine-rich repeat or pyrin domain-containing 3 (from UniProt Q8R4B8 1-1033)”: the binding entry was “binds”.
